Reference: PMC7819943, “Rice protein-binding microarrays: a tool to detect cis-acting elements near promoter regions in rice”
This is one part of the list.

Chains of the proteins cited; added tags and fusions are not shown.
UniProt Q0JBA9, entry or part of it: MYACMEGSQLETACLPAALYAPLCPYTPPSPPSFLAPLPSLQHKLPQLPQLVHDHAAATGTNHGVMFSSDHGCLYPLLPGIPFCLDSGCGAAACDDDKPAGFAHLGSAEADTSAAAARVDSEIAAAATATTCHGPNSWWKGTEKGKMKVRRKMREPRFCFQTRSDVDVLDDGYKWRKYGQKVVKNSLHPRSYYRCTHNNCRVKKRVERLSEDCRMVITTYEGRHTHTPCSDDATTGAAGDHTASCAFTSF

Biological target: OsWRKY34 (Oryza sativa, UniProt Q0JBA9 1-250)
Experiment: protein-binding microarray (RPBM); PBS, 2% BSA, 51.3 ng/ul salmon testes DNA, 50 uM zinc acetate, 200 nM TF, 25 C, 1 h; high values mean tight binding
Details: protein: recombinant; tags: N-terminal polyhistidine and DsRed monomer fusion (pET32a); label: CyDye5-dUTP incorporated in the synthesized complementary strand; 3' TTTTT single-stranded linker to array surface; dsDNA, one strand shown
Procedure, shortened: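 The binding signal for each feature is its fluorescence intensity in arbitrary units. An Axon 4000B scanner was used to read a custom Agilent array that had been made double-stranded with Cy5-dUTP primer extension, blocked with 2% BSA, incubated at 25 °C for 1 h with 200 nM protein in PBS, 2% BSA, salmon testes DNA and 50 µM zinc acetate, and washed. The protein was an N-terminal polyhistidine–DsRed transcription factor fusion from E. coli BL21-CodonPlus, purified on Ni–NTA.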

Row | Sequence | binding signal
1 | AATATATATTTGTATGGCTCTTTCATTGTATTACCTTCATCGGAGTCACCTAGTGCAG | 11900 fluorescence intensity (a.u.)
2 | GAGACACACGCTTCGTACTCTCATCTCAACCTTCAGATTCCGGAGTCACCTAGTGCAG | 9120 fluorescence intensity (a.u.)
3 | ACTTTTTTAAACATGTTTGGCCGTTCGTCTTATTCAAAAACGGAGTCACCTAGTGCAG | 9620 fluorescence intensity (a.u.)
4 | GCCTGAAAGCCCAATACTTGTTTGTTTGTTTTGGGCCTCTCGGAGTCACCTAGTGCAG | 8280 fluorescence intensity (a.u.)
5 | AACGAATTTTTTTTTCATCTCATCGTTCTACATGTTGGGTCGGAGTCACCTAGTGCAG | 9440 fluorescence intensity (a.u.)
6 | ATTCCGCTCCCTCCCGTCCACCGCCGCTGCCGCTGCCCCACGGAGTCACCTAGTGCAG | 9270 fluorescence intensity (a.u.)
7 | ACTATCCGAAATTTCACTCTAATCTACTTTCGTCCCACATCGGAGTCACCTAGTGCAG | 10000 fluorescence intensity (a.u.)
8 | AACGCTATTTATTTTTTAAACATGTTTGATCGTTCGTCTTCGGAGTCACCTAGTGCAG | 10200 fluorescence intensity (a.u.)
9 | CTGTTTAGTGGTGCTCCATTTGCAATGTTTGACACTTGATCGGAGTCACCTAGTGCAG | 9410 fluorescence intensity (a.u.)
10 | TCAACTCCTCCCTGAGTCTAGTCCCGATCCGCCGTTGACCCGGAGTCACCTAGTGCAG | 13000 fluorescence intensity (a.u.)
11 | TTCGCACGGACTATGAAAACACCTCTTATTTTTTATTTTTCGGAGTCACCTAGTGCAG | 8640 fluorescence intensity (a.u.)
12 | CTTGCCACATCATTTTCTATTCTAGGTAGCAGCTTATTTACGGAGTCACCTAGTGCAG | 8350 fluorescence intensity (a.u.)
13 | TGGGAAGTGGGGACCGAGCTCGTGGGTGGAGGATTACACACGGAGTCACCTAGTGCAG | 8940 fluorescence intensity (a.u.)
14 | CCGTGCTGATGCTTTTGAGTGGTTTGCTTCGTGCCTCCAGCGGAGTCACCTAGTGCAG | 8540 fluorescence intensity (a.u.)
15 | TAAAAAATTTAAAGGGTAGTGGGTCTTTTGGGTTGGAGTGCGGAGTCACCTAGTGCAG | 8690 fluorescence intensity (a.u.)
16 | ATGAGTTCCCAACCGCCACTTACATTAAGTACCACACTCCCGGAGTCACCTAGTGCAG | 8660 fluorescence intensity (a.u.)
17 | ATTATACCCTTATGTCTTGTTTAGTTCCCAAATTTTTTTTCGGAGTCACCTAGTGCAG | 9000 fluorescence intensity (a.u.)
18 | TTTAGATTGGATTTCGTTATGTGTTTTCCCATGTCATTTACGGAGTCACCTAGTGCAG | 10800 fluorescence intensity (a.u.)
19 | ATGGATTGCTGCCCCACTTTCAACCCATCTCTACCGTCCGCGGAGTCACCTAGTGCAG | 12100 fluorescence intensity (a.u.)
20 | TATAGTTTTTTTCATACGTCATGCATTGTGCTTTCTCTATCGGAGTCACCTAGTGCAG | 8120 fluorescence intensity (a.u.)
21 | ATTTCCCGCACTAAAATTTTTCATCCCACATGAAGTATTTCGGAGTCACCTAGTGCAG | 10200 fluorescence intensity (a.u.)

Single values from the entries so far:
AACGAATTTTTTTTTCATCTCATCGTTCTACATGTTGGGTCGGAGTCACCTAGTGCAG | binding signal: 9440 fluorescence intensity (a.u.)
CTGTTTAGTGGTGCTCCATTTGCAATGTTTGACACTTGATCGGAGTCACCTAGTGCAG | binding signal: 9410 fluorescence intensity (a.u.)
CTTGCCACATCATTTTCTATTCTAGGTAGCAGCTTATTTACGGAGTCACCTAGTGCAG | binding signal: 8350 fluorescence intensity (a.u.)

Later entries:

Row | Sequence | binding signal
22 | ACCATGAAACATGCATTAGGGTGTTATTTGTCCAGTTTCACGGAGTCACCTAGTGCAG | 8880 fluorescence intensity (a.u.)
23 | ACTGTGGCTTCCCGTGTCAACGTTTGACTGTCCGTCTTATCGGAGTCACCTAGTGCAG | 14000 fluorescence intensity (a.u.)
24 | CACCACGTCCCAGTCGCTACAGTGCTGTCTTCAACCTCTGCGGAGTCACCTAGTGCAG | 9030 fluorescence intensity (a.u.)
25 | GACGCGCCCCGCCGCCTCGCCTCGCCTCGCCTCGCCATCCCGGAGTCACCTAGTGCAG | 10400 fluorescence intensity (a.u.)
26 | GATCGTCCCATATGCATCCCATTGGCCATAGTGCATACTACGGAGTCACCTAGTGCAG | 10300 fluorescence intensity (a.u.)
27 | CCGTTGACATTTTATCTAACGTTTGACCATTCGTCTTATTCGGAGTCACCTAGTGCAG | 15900 fluorescence intensity (a.u.)
28 | TAGGTGGTTGTTTTTTTTTTTTACGGAGGAGGCCTCATGACGGAGTCACCTAGTGCAG | 9470 fluorescence intensity (a.u.)
29 | TCTGGGCCCTCGCCTTCGAACTCATCGCCGACGACCGCGGCGGAGTCACCTAGTGCAG | 10900 fluorescence intensity (a.u.)
30 | GGTTTCTCTTGTTTGAGTCGTAGAATTCCTACATTCTTTCCGGAGTCACCTAGTGCAG | 12200 fluorescence intensity (a.u.)
31 | GGGGTGTTGTGTCCTTACTTTGTTTTTCAGTGGCAGGATCCGGAGTCACCTAGTGCAG | 15200 fluorescence intensity (a.u.)
32 | TAAAGATAATTTTGCCGGTATTTTGGTACGTTAGTTTTCACGGAGTCACCTAGTGCAG | 8560 fluorescence intensity (a.u.)
33 | TCCATGACCAGCCTCACCTTGGCCTCGACCTCCTCTGCCGCGGAGTCACCTAGTGCAG | 8510 fluorescence intensity (a.u.)
34 | CGGTATTTACATAGTATGGGGATCGTTGGTACTAAGATGTCGGAGTCACCTAGTGCAG | 8720 fluorescence intensity (a.u.)
35 | CCAATGCATTTTTCCTTTTACCATTCATTTCGGCGAACCACGGAGTCACCTAGTGCAG | 10600 fluorescence intensity (a.u.)
36 | CGTGGATTCAGACGTTTTTTCCGATTCGCTTTTTTATAAACGGAGTCACCTAGTGCAG | 14200 fluorescence intensity (a.u.)
37 | CTGTACTTCTGTAGTGGTACTACACTACTTACTACCGCTACGGAGTCACCTAGTGCAG | 8280 fluorescence intensity (a.u.)
38 | TTCTCGCCGCTTGACTAAATTTGACTCCACCTGTTTGCTTCGGAGTCACCTAGTGCAG | 10900 fluorescence intensity (a.u.)
39 | ACCCTTCAACTTTTAACACAATGATTGTTTCGCTTATACTCGGAGTCACCTAGTGCAG | 9600 fluorescence intensity (a.u.)
40 | GGGGTTCAATTTCTAGACAAAGTGAGTGGGTATTTGATTTCGGAGTCACCTAGTGCAG | 11500 fluorescence intensity (a.u.)
41 | TTCTTATATGACTCCTTCTATATTTCTAAAAGTGCGGAGCCGGAGTCACCTAGTGCAG | 8310 fluorescence intensity (a.u.)
42 | CTAATAGCTCACCAGTTTGTACTTTTGATCATCTTATCTACGGAGTCACCTAGTGCAG | 9790 fluorescence intensity (a.u.)
